The list shows a part of the results. These are further read-outs of the screen, such as a control signal, another cell line or another target. No call is given for them. The list favours compounds with an active or inconclusive main result. The note in brackets gives the kind of curve behind each potency; many fits are weak.
Assay: qHTS Assay to Find Inhibitors of Chronic Active B-Cell Receptor Signaling
Details: ABC-DLBCL IkBa-CBG/CBR reporter, luminescence ratio (green luciferase fused to IkBa over red control in TMD8 lymphoma cells), 4 h; measured here: CBR red luminescence, cell number
In short: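 Doxycycline induced both beetle luciferases in TMD8 lymphoma cells; IKK-driven degradation limits the IkappaBalpha-fused green signal, while red luminescence normalises for cell number and nonspecific effects. Compounds tested up to 46 uM, 4 hrs.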

Row | Compound | AC50
1 | CSc1nc(O)c(N=Nc2ccc(F)cc2F)c(=O)[nH]1 | 7.08 µM [falling, partial curve]
2 | O=C(O)CSc1ncnc2sc(-c3ccccc3)cc12 | 14.1 µM [falling, partial curve, poor fit]
3 | Cc1ccc(-c2ccc(OC(=O)c3ccc(=O)[nH]c3)c(C)c2)cc1 | 8.91 µM [rising, partial curve]
4 | O=C(Nc1ccc2c(c1)OCCO2)c1cccc(Cl)c1 | 11.2 µM [falling, partial curve]
5 | CCC(=O)Oc1ccc(C(=O)Nc2ccc3c(c2)C(=O)N(C2CCCCC2)C3=O)cc1 | 1.84 µM [rising, full curve, poor fit]
6 | O=C(Nc1nnc(Cc2c[nH]c3ccccc23)s1)c1ccc(Cl)cc1Cl | 7.31 µM [falling, single point]
7 | Clc1ccc(-n2cccc2CN2CCc3c([nH]c4ccccc34)C2c2ccccn2)nc1 (stereo not drawn) | 35.5 µM [falling, single point]
8 | O=C1c2cccnc2Nc2ccccc2N1CCCF | 35.5 µM [rising, single point]
9 | COC(=O)c1sc(NC(=O)CSc2nnnn2C)nc1C | 35.5 µM [falling, single point]
10 | COc1ccc(CCNS(=O)(=O)c2ccc(Cl)cc2)cc1OC | 25.1 µM [rising, partial curve, poor fit]
11 | CCOC(=O)c1nn(-c2ccc(F)cc2)c2nc(Nc3ccccc3)cc(=O)n12 | 0.206 µM [rising, full curve, poor fit]
12 | O=c1c(-c2ccc(Br)cc2)coc2c(CN3CCOCC3)c(O)ccc12 | 16.4 µM [rising, partial curve, poor fit]
13 | COCCOC(=O)C1=C(C)NC(=S)NC1c1cccs1 (stereo not drawn) | 1.41 µM [rising, full curve, poor fit]
14 | CC1CC1C(=O)OCc1cc(=O)n2cc(Br)ccc2n1 (stereo not drawn) | 1.78 µM [rising, partial curve, poor fit]
15 | O=C1N=C(N2CCOCC2)S/C1=C/c1ccc(-c2ccc(F)cc2)o1 | 0.112 µM [rising, full curve, poor fit]
16 | COc1ccc(CCNS(=O)(=O)c2ccc3c(c2)OCCO3)cc1 | 32.6 µM [rising, partial curve, poor fit]
17 | O=c1[nH]c(CN2CCN(c3ccc(O)cc3)CC2)nc2scc(-c3ccc(Cl)cc3)c12 | 25.1 µM [falling, single point]
18 | C=CCn1c(CC(=O)OC)csc1=Nc1ccc(C(C)=O)cc1 | 17.8 µM [rising, partial curve, poor fit]

Pulled by structure from the list above, two records:
Row | Compound | AC50
3 | Cc1ccc(-c2ccc(OC(=O)c3ccc(=O)[nH]c3)c(C)c2)cc1 | 8.91 µM [rising, partial curve]
18 | C=CCn1c(CC(=O)OC)csc1=Nc1ccc(C(C)=O)cc1 | 17.8 µM [rising, partial curve, poor fit]

Source: PubChem BioAssay AID493014 (National Center for Advancing Translational Sciences (NCATS), 2011)
